Source: PubChem BioAssay AID720505 (Drosophila RNAi Screening Center, 2013)
In all, the deposit lists about 20,000 reagents; this is an unselected part of those with a known target gene and a result. Over the whole deposit, about 2,100 (10%) were called active. 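Raw plate signals without normalisation; calls rest on control-based scores that were not deposited; replicate 2 separates called from uncalled poorly.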 Not stated in the record: the amount of reagent, the time to read-out.

Aim: 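Genes needed for store-operated calcium entry in fly cells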 (primary screen)
Cell system: Drosophila S2R+ cells
Reagent: long dsRNA against Drosophila genes
Conditions: thapsigargin (2 µM) in calcium-free buffer to empty internal stores, then 2 mM calcium added back
Measurement: 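Stores emptied by 2 µM thapsigargin without calcium, then 2 mM calcium re-added; fluo-4 fluorescence followed by FLIPR in 384-well plates, per-well averaged endpoint, raw; two screen passes, some wells retested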
Direction: calcium signal: higher = more calcium entry after store depletion
Active means: 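About 1500 genes called as lowering calcium entry, by varying amounts, judged against per-plate control wells with STIM1 as positive and Rho1 as negative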
Meaning of the calls: active = called as lowering calcium entry; inactive = not called

gd [DRSC20336]
- calcium signal, replicate 1: 146
- calcium signal, replicate 2: 111
- Call: inactive

Cul2 [DRSC03710]
- calcium signal, replicate 1: 145
- calcium signal, replicate 2: 122
- Call: inactive

CG12112 [DRSC17809]
- calcium signal, replicate 1: 123
- calcium signal, replicate 2: 94.3
- Call: inactive

CG31323 [DRSC14901]
- calcium signal, replicate 1: 220
- calcium signal, replicate 2: 112
- Call: inactive

sphe [DRSC20203]
- calcium signal, replicate 1: 108
- calcium signal, replicate 2: 81.7
- Call: inactive

Jhbp14 [DRSC01988]
- calcium signal, replicate 1: 66.6
- calcium signal, replicate 2: 115
- Call: active

CG18480 [DRSC01957]
- calcium signal, replicate 1: 89.8
- calcium signal, replicate 2: 97.4
- Call: inactive

CG17821 [DRSC06696]
- calcium signal, replicate 1: 189
- calcium signal, replicate 2: 160
- Call: inactive

CG30291 [DRSC03842]
- calcium signal, replicate 1: 97.6
- calcium signal, replicate 2: 9102
- Call: inactive

Mst57Da [DRSC16744]
- calcium signal, replicate 1: 153
- calcium signal, replicate 2: 116
- Call: inactive

RpS19b [DRSC15773]
- calcium signal, replicate 1: 127
- calcium signal, replicate 2: 88.5
- Call: inactive

lectin-46Cb [DRSC06611]
- calcium signal, replicate 1: 111
- calcium signal, replicate 2: 142
- Call: inactive

CG13771 [DRSC02277]
- calcium signal, replicate 1: 134
- calcium signal, replicate 2: 114
- Call: inactive

A portion taken from the entries so far:
gd [DRSC20336]
- calcium signal, replicate 1: 146
- calcium signal, replicate 2: 111
- Call: inactive

Cul2 [DRSC03710]
- calcium signal, replicate 1: 145
- calcium signal, replicate 2: 122
- Call: inactive

The results go on.
CG16898 [DRSC06635]
- calcium signal, replicate 1: 173
- calcium signal, replicate 2: 130
- Call: inactive

CG15445 [DRSC20517]
- calcium signal, replicate 1: 184
- calcium signal, replicate 2: 155
- Call: inactive

CG9147 [DRSC03147]
- calcium signal, replicate 1: 153
- calcium signal, replicate 2: 118
- Call: inactive

Ugt36E1 [DRSC02599]
- calcium signal, replicate 1: 96.6
- calcium signal, replicate 2: 103
- Call: inactive

CG12831 [DRSC06179]
- calcium signal, replicate 1: 132
- calcium signal, replicate 2: 121
- Call: inactive

omd [DRSC16507]
- calcium signal, replicate 1: 92.2
- calcium signal, replicate 2: 73.4
- Call: inactive

Tep4 [DRSC03453]
- calcium signal, replicate 1: 60.3
- calcium signal, replicate 2: 195
- Call: inactive

CG8236 [DRSC16399]
- calcium signal, replicate 1: 90
- calcium signal, replicate 2: 120
- Call: inactive

Glut1 [DRSC08378]
- calcium signal, replicate 1: 105
- calcium signal, replicate 2: 71.2
- Call: inactive

Glut1 [DRSC08662]
- calcium signal, replicate 1: 99.6
- calcium signal, replicate 2: 122
- Call: inactive

CG9876 [DRSC04586]
- calcium signal, replicate 1: 104
- calcium signal, replicate 2: 269
- Call: inactive

CG5781 [DRSC02893]
- calcium signal, replicate 1: 105
- calcium signal, replicate 2: 90.2
- Call: inactive

Bub3 [DRSC14168]
- calcium signal, replicate 1: 58.3
- calcium signal, replicate 2: 140
- Call: active

prd1 [DRSC15227]
- calcium signal, replicate 1: 134
- calcium signal, replicate 2: 90.2
- Call: inactive

Mitf [DRSC17212]
- calcium signal, replicate 1: 123
- calcium signal, replicate 2: 164
- Call: inactive

Mitf [DRSC21056]
- calcium signal, replicate 1: 62.2
- calcium signal, replicate 2: 114
- Call: inactive
